# According to PubChem BioAssay AID1347075 (National Center for Advancing Translational Sciences (NCATS), 2019):
# The campaign covered roughly 400,000 compounds. About 5,500 (1.4%) were called active. Inconclusive results, whose numbers are uncertain, are shown with a selection of clear calls. Calls follow the shape of the dose curve; as a rule, active = well fitted cell-killing curve with a large enough effect; inconclusive = small, poorly fitted or top-dose-only effect, or effect the other way; inactive = flat fitted curve, though single readings scatter. A potency beside an inconclusive call is a rough fit, not a confirmed value.
# Test: qHTS assay for MDR1-selective chemotherapeutics: Primary screen using the parental adenocarcinoma cell KB-3-1; also: nearly all actives have a fitted effect of over 60% in size
# Settings: KB-3-1 viability, CellTiter-Glo ATP luminescence, 72 h; activity change, negative = cytotoxic: at 46.1 µM (top of the series)
# Summary of the method: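 Viability of parental KB-3-1 cells, measured by CellTiter-Glo luminescence, followed a 72 h incubation at 37 °C with pinned compounds in phenol-red-free DMEM containing 10% FBS.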
# % is scaled to controls: 0 for no effect and ±100 for the full control effect; potency is read from the fitted curve at half-maximal effect.
Compound,Potency,"activity change, negative = cytotoxic"
S=c1[nH]ncn2c1cc1oc3ccccc3c12,inactive,
COC(=O)[C@@]12CCCCN1[C@H](c1ccc(-c3ccc(OC)cc3)cc1)[C@@H]1C(=O)N(C)C(=O)[C@@H]12,"inconclusive: 20.6 µM [cytotoxic, single point]",
O=C(c1cc(-c2ccc(Cl)s2)nc2ccccc12)N1CCCC1,inactive,
CCN(C[C@H]1N[C@@](Cc2ccccc2)(C(=O)OC)[C@H]2C(=O)N(Cc3ccccc3)C(=O)[C@@H]12)C(C)=O,,inconclusive: 13.1%
CCCN(CC(=O)Nc1ccccc1C)C(=O)C1CC(=O)N(c2ccc(CC)cc2)C1 (stereo not drawn),inactive,
Nc1nc(=S)c2ncn(C3OC(CO)C(O)C3O)c2[nH]1 (stereo not drawn),active: 5.8 µM,
CN(/N=C/c1cccnc1)c1cnc2ccccc2n1,"inconclusive: 29.1 µM [cytotoxic, single point]",
COc1ccc([N+](=O)[O-])cc1NCc1ccccc1,"inconclusive: 29.1 µM [cytotoxic, single point]",
CCC(C)c1ccccc1OCCn1c(CCNC(=O)C2CCCCC2)nc2ccccc21 (stereo not drawn),"inconclusive: 0.82 µM [rising, partial curve, poor fit]",
CCn1cc(CN2CCC(C(=O)Nc3ccc(Oc4ccccc4F)cc3)CC2)c(C)n1,inactive,
Cc1ccc(F)c(S(=O)(=O)NC(=O)C2(C)CCN2C(=O)c2sccc2C)c1 (stereo not drawn),inactive,
Cc1cc(N2CCCC2)nc2ccccc12,"inconclusive: 25.9 µM [cytotoxic, single point]",
CCCCCCN1N=C(C)C(C(=O)c2ccc(Cl)cc2)C1=O (stereo not drawn),"inconclusive: 20.6 µM [cytotoxic, single point]",
CN(C)c1ccc(/C=C/c2ccnc3ccccc23)cc1Cl,"inconclusive: 25.9 µM [cytotoxic, single point]",
CCOc1ncccc1C(=O)Nc1ccc(Cl)c(S(=O)(=O)N2CCCC2)c1,"inconclusive: 11.6 µM [cytotoxic, single point]",
CCC(CC)C(=O)Nc1cccc(/C(C)=N\NC(=O)c2ccc(C)s2)c1,inactive,
COc1ccc(N=CC2=C(O)CC(c3ccccc3)CC2=O)c(OC)c1 (stereo not drawn),"inconclusive: 29.1 µM [cytotoxic, single point]",
COc1ccc(CCNC(=O)c2cc(C3CC3)nc3c2cnn3C(C)C)cc1,,inconclusive: -45.8%
Cc1cc(C)c2cc3c(N)c(C(=O)N4CCOCC4)sc3nc2c1,inactive,
CCOc1ccc(C2c3c(-c4ccccc4O)n[nH]c3C(=O)N2Cc2ccncc2)cc1 (stereo not drawn),"inconclusive: 16.4 µM [cytotoxic, single point]",
COc1cc(SC#N)ccc1N=Cc1c(C)[nH]n(-c2ccc(Cl)cc2)c1=O,"inconclusive: 16.4 µM [cytotoxic, partial curve, poor fit]",
Cc1ncoc1C(=O)Nc1ncc([N+](=O)[O-])s1,"inconclusive: 18.4 µM [cytotoxic, single point]",
CCc1ccc(C(=O)c2cn(CC(=O)Nc3ccc(F)cc3)c3cc4c(cc3c2=O)OCO4)cc1,"inconclusive: 20.6 µM [cytotoxic, single point]",

Compound,Potency,"activity change, negative = cytotoxic"
CC(C)C[C@H](NC(=O)c1[nH]cnc1C(=O)N[C@@H](C)c1ccccc1)C(=O)OC(C)(C)C,"inconclusive: 23.1 µM [cytotoxic, single point]",
CCOC(=O)Cn1c(CN2CCN(C(c3ccccc3)c3ccccc3)CC2)nc2c1c(=O)n(C)c(=O)n2C,"inconclusive: 20.6 µM [cytotoxic, single point]",
CCOC(=O)c1cc(-c2ccccc2)n(CCCC(=O)Nc2ccc(CC)cc2)c1C,"inconclusive: 25.9 µM [cytotoxic, partial curve, poor fit]",
CCCc1nnc(NC(=O)c2nc(S(=O)(=O)Cc3ccc(C)cc3)ncc2Cl)s1,"inconclusive: 20.6 µM [cytotoxic, single point]",
COc1cc2c(cc1OC)C(c1ccccc1)N(C(=O)CCl)CC2 (stereo not drawn),active: 4.11 µM,
CCOC(=O)c1sc(=NC(=O)/C=C/c2cccs2)n(C)c1C,,inconclusive: 37.5%
Cc1ccc(C#CC[N+]2(CC#Cc3ccc(C)cc3)CCCCC2)cc1,"inconclusive: 2.31 µM [cytotoxic, full curve, poor fit]",
Cc1ccc(NC(=O)CSc2nc3ccccc3c3nc(CCn4c(C)nc5ccccc54)nn23)cc1F,"inconclusive: 18.4 µM [cytotoxic, single point]",
CNc1c([N+](=O)[O-])cnn1-c1ccc(Cl)cc1Cl,"inconclusive: 29.1 µM [cytotoxic, single point]",
COc1ccc(CNCC(O)(c2ccccc2)c2ccc(Cl)cc2)cc1 (stereo not drawn),"inconclusive: 20.6 µM [cytotoxic, single point]",
CCOc1ccccc1NS(=O)(=O)c1c(-c2ccc(C)cc2)csc1C(=O)OC,"inconclusive: 20.6 µM [cytotoxic, single point]",
O=C(Oc1ccc(-c2nnco2)cc1)c1ccco1,inactive,
COc1ccccc1OCC(=O)Nc1cc(C(F)(F)F)ccc1-n1cncn1,"inconclusive: 23.1 µM [rising, single point]",
CCN(c1ccccc1)S(=O)(=O)c1ccc(NN)nc1,,inconclusive: -38.3% [cytotoxic]
CCOC(=O)c1c(NC(=O)CNC2CCCCC2)sc(C)c1C,"inconclusive: 29.1 µM [cytotoxic, single point]",
O=C(NCCc1ccccc1)C(=O)NCC1OCCN1S(=O)(=O)c1cccs1 (stereo not drawn),"inconclusive: 13 µM [rising, partial curve, poor fit]",
COc1ccc([C@H]2C[C@H](O)[C@@H](n3cc(-c4ccc(F)cc4)nn3)CN2Cc2cccs2)cc1,"inconclusive: 3.26 µM [cytotoxic, partial curve, poor fit]",
COc1ccc(C)cc1NC(=O)NC1CCCc2ccccc21 (stereo not drawn),inactive,
C=CCNC(=O)CSc1nnc(-c2ccc(S(=O)(=O)N3CCCC3)cc2)n1C,inactive,
CC(C)(C)NC(=O)C(c1c[nH]c2ccccc12)N(C(=O)Cn1nnc(-c2ccc(Cl)cc2)n1)c1ccccc1F (stereo not drawn),inactive,
CCOC(=O)C1=CCN(S(=O)(=O)c2ccc(Br)cc2)C1c1cccc(C)c1 (stereo not drawn),"inconclusive: 29.1 µM [cytotoxic, single point]",
CCN1C/C(=C/c2ccc(N3CCOCC3)cc2)C(=O)/C(=C/c2ccc(N3CCOCC3)cc2)C1,"inconclusive: 29.1 µM [cytotoxic, single point]",
Fc1ccc(CNc2ncnc3c2c(-c2ccccc2)cn3-c2ccccc2)cc1,"inconclusive: 25.9 µM [cytotoxic, partial curve]",

Compound,Potency,"activity change, negative = cytotoxic"
CC(=O)Nc1c(O)nc(SCc2ccccc2C#N)[nH]c1=O,inactive,
COc1ccc(-c2nc(S(=O)(=O)c3ccccc3)c(N3CCN(C)CC3)o2)cc1,inactive,
CCOC(=O)c1cccc(-c2c(-c3ccccc3)ncc3cc(OC)c(OC)cc23)c1,inactive,
CC(=O)c1c(O)c(C)c(O)c2c1OC1=CC(=O)C(C(C)=O)C(=O)[C@@]12C (stereo partly drawn),"inconclusive: 29.1 µM [cytotoxic, single point]",
Cc1ccc(C)c(N2CCN(C(=O)CN3C(=O)CSc4c3c(C)nn4-c3ccccc3)CC2)c1,inactive,
O=C(NCc1ccccc1)C1C(c2ccc3c(c2)OCO3)=Nc2ccccc2N1C(=O)c1ccco1 (stereo not drawn),active: 7.31 µM,
CCN(CC)c1ccc(NC(=O)c2cccc(OC)c2)c(C)c1,"inconclusive: 29.1 µM [cytotoxic, single point]",
Cc1cc(C)c2c(=O)n(CC(=O)NC3CCCC3)sc2n1,"inconclusive: 29.1 µM [cytotoxic, single point]",
COc1ccc(NC(=O)C(C/C=C(/C)Cl)C(C)=O)cc1 (stereo not drawn),"inconclusive: 29.1 µM [cytotoxic, single point]",
Nc1nc(N)c2c(ccc3nccc32)[nH]1,"inconclusive: 29.1 µM [cytotoxic, single point]",
O=c1cc(N2CCCCC2)c(-c2ccccc2)nn1Cc1ccccc1,inactive,
Cc1nc2sc3c(c2c(=O)[nH]1)CCC3,inactive,
FC(F)(F)c1ccccc1Cc1c(C2CCCCC2)nc2c3ccccc3ccn12,"inconclusive: 29.1 µM [cytotoxic, single point]",
COc1cc(OC)c2c(-c3ccccc3)cc(=O)oc2c1C(CCN1CCCC(C)C1)c1ccc(N(C)C)cc1 (stereo not drawn),"inconclusive: 18.4 µM [cytotoxic, single point]",
CSc1nc(O)c(C(c2ccc(F)cc2)c2c(O)nc(SC)[nH]c2=O)c(=O)[nH]1,"inconclusive: 3.66 µM [rising, partial curve, poor fit]",
O=c1c2c3c(sc2nc2n1CCC2)CCCC3,"inconclusive: 29.1 µM [rising, single point]",
CCN(CC)CCCCN1c2ccccc2Sc2ccccc21,"inconclusive: 29.1 µM [cytotoxic, single point]",
Cc1c2cc[n+](CCN3CCCCC3)cc2c(C)c2c1[nH]c1ccc(O)cc12,"inconclusive: 14.6 µM [cytotoxic, partial curve]",
CN(c1ccccc1)S(=O)(=O)c1ccc(C(=O)Nc2cccc(S(=O)(=O)N3CCOCC3)c2)cc1,"inconclusive: 25.9 µM [cytotoxic, partial curve, poor fit]",
Cc1cc(C)n(-c2ccc(C(=O)OCC(=O)N3CCN(c4ccccc4)CC3)cc2)n1,inactive,
CCOc1ccc(OCCN(C)Cc2ccccc2)cc1,inactive,
COc1ccc(OCCn2c(C)nc3ccccc32)cc1,"inconclusive: 29.1 µM [rising, single point]",

# Laid out differently: four of the compounds above
Compound	Potency	activity change, negative = cytotoxic
CCCN(CC(=O)Nc1ccccc1C)C(=O)C1CC(=O)N(c2ccc(CC)cc2)C1 (stereo not drawn)	inactive	
CCOc1ccc(C2c3c(-c4ccccc4O)n[nH]c3C(=O)N2Cc2ccncc2)cc1 (stereo not drawn)	inconclusive: 16.4 µM [cytotoxic, single point]	
CCc1ccc(C(=O)c2cn(CC(=O)Nc3ccc(F)cc3)c3cc4c(cc3c2=O)OCO4)cc1	inconclusive: 20.6 µM [cytotoxic, single point]	
CCOc1ccccc1NS(=O)(=O)c1c(-c2ccc(C)cc2)csc1C(=O)OC	inconclusive: 20.6 µM [cytotoxic, single point]	
